# In the supplement of paper PMC9135407:
# Several values for one entry are separate records, joined by “and”; a condition that tells them apart may be missing. Equal values may be shown once. Where a name gives a salt, the structure may show the parent alone. ± gives the standard deviation of the averaged measurements. This is one part of the list. Plates or batches differ in their baseline, so values are only roughly comparable.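 Assay uses culture-activated primary human stellate myofibroblasts; lipid droplet recovery indicates inactivation. Measured: proportion of Hoechst-counted cells over a plate-specific Bodipy cutoff, duplicate wells, DMSO and nortriptyline as per-plate negative and positive controls. A hit scores, control-normalized, above the plate's top-tenth-percentile nortriptyline wells or ranks among its three best wells. Final well concentrations not reported.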
# System: primary human hepatic stellate cells (donor 1)
# Test: percent Bodipy-positive cells; higher = more lipid droplet accumulation
# Settings: 48 h
# [1] = library stock concentration: 1 mM
# [2] = library stock concentration: 10 mM
# [3] = library stock concentration: 3.33 mM
# [4] = library stock concentration: 80 uM
# [5] = library stock concentration: 400 uM
# [6] = library stock concentration: 2 mM
structure (smiles),measurement,setting,value
O=C(Cn1ccnc1[N+](=O)[O-])NCCO [Etanidazole],percent Bodipy-positive cells,,5.92 ± 1.3%
same,percent Bodipy-positive cells,library stock concentration: 9.3 mM,13.6 ± 7.2%
CCCCCCCCCCCCCCCC(=O)NC(C)C [Palmitoyl N-Isopropylamide],percent Bodipy-positive cells,[1],10.9 ± 4.8%
CCCCC[C@H](O)/C=C/[C@@H]1[C@H](C/C=C\CCCC(=O)O)[C@@H](O)C[C@H]1O [8-iso Prostaglandin F2.alpha.],percent Bodipy-positive cells,[1],12 ± 1.3%
C[C@H](NC(=O)c1sccc1OCc1ccc(Cl)cc1)c1ccccc1,percent Bodipy-positive cells,[2],10.4 ± 4.9%
CC(Cc1ccccc1)Nc1ncnc2c1ncn2C1OC(CO)C(O)C1O (stereo not drawn) [R(-)-N6-(2-Phenylisopropyl)adenosine],percent Bodipy-positive cells,[2],38.1 ± 3.9%
"N=C(N)SCCc1cccc(CCSC(=N)N)c1 [1,3-PBIT (dihydrobromide)]",percent Bodipy-positive cells,[1],6.26 ± 3.1%
O=c1cc(-c2ccc(O)cc2)oc2cc(O)cc(O)c12 [Apigenin],percent Bodipy-positive cells,,24.9 ± 5.2%
same,percent Bodipy-positive cells,[3],6.86 ± 1.4%
CO[C@H]1/C=C/O[C@@]2(C)Oc3c(C)c(O)c4c(c3C2=O)C2=NC3(CCN(CC(C)C)CC3)NC2=C(NC(=O)/C(C)=C\C=C\[C@H](C)[C@H](O)[C@@H](C)[C@@H](O)[C@@H](C)[C@H](OC(C)=O)[C@@H]1C)C4=O [Rifabutin],percent Bodipy-positive cells,,6.35 ± 1.7%
same,percent Bodipy-positive cells,[2],29.9 ± 6.1%
CO[C@H]1/C=C/O[C@@]2(C)Oc3c(C)c(O)c4c(c3C2=O)C2=NC3(CCN(CC(C)C)CC3)NC2=C(NC(=O)/C(C)=C\C=C\[C@H](C)[C@H](O)[C@@H](C)[C@@H](O)[C@@H](C)[C@H](OC(C)=O)[C@@H]1C)C4=O,percent Bodipy-positive cells,[2],11.5 ± 1.3%
CCOC(=O)C1=C(C)NC(C)=C(C(=O)OCC)C1c1c(F)c(F)c(F)c(F)c1F [Nemadipine-A],percent Bodipy-positive cells,[2],77.1 ± 22%
C1=CCOCc2cc(ccc2OCCN2CCCC2)Nc2nccc(n2)-c2cccc(c2)COC1 [Pacritinib],percent Bodipy-positive cells,[2],97.2 ± 2.3%
CC(C)n1nc(-c2cc3cc(O)ccc3[nH]2)c2c(N)ncnc21,percent Bodipy-positive cells,[3],1.5 ± 0.43%
same,percent Bodipy-positive cells,[2],18.1 ± 3.5%
NC(=O)N1c2ccccc2C=Cc2ccccc21 [Carbamazepine],percent Bodipy-positive cells,,23.9 ± 6.3%
same,percent Bodipy-positive cells,[3],28.4 ± 4.5%
NC(=O)N1c2ccccc2C=Cc2ccccc21,percent Bodipy-positive cells,[2],32.3 ± 13%
CC[n+]1c(/C=C/N(C)c2ccccc2)n(-c2ccccc2)c2ccc(-c3nc4ccccc4s3)cc21 [Akt Inhibitor IV],percent Bodipy-positive cells,[3],24.1 ± 4.8%
COc1ccccc1CNC1CCCNC1c1ccccc1 (stereo not given),percent Bodipy-positive cells,[2],59.8 ± 2.6%
N#Cc1ccccc1OCC(O)CNCCNC(=O)Nc1ccccc1 (stereo not given),percent Bodipy-positive cells,[2],16.8 ± 2.5%
NCCC[C@H](N)C(=O)O,percent Bodipy-positive cells,[2],20.7 ± 2%
Clc1ccc(C(Cn2ccnc2)OCc2c(Cl)cccc2Cl)c(Cl)c1 (stereo not given) [Isoconazole nitrate],percent Bodipy-positive cells,[3],5.46 ± 1.3%
same,percent Bodipy-positive cells,[2],27.9 ± 0.81%
Clc1ccc(C(Cn2ccnc2)OCc2c(Cl)cccc2Cl)c(Cl)c1 (stereo not given) [Isoconazole],percent Bodipy-positive cells,,28.9 ± 2.3%
CCCCCCCCCCCCCCCCCCCCCCCCC(=O)OC [Pentacosanoic Acid methyl ester],percent Bodipy-positive cells,[1],8.83 ± 2.4%
COc1c(O[C@@H]2O[C@H](CO)[C@@H](O)[C@H](O)[C@H]2O)cc2c(c1OC)-c1ccc(SC)c(=O)cc1[C@@H](NC(C)=O)CC2 [Thiocolchicoside],percent Bodipy-positive cells,,23.4 ± 1.8%
CCCCCCCCCCCCCC=CC(O)C(COP(=O)(O)O)NC(=O)CCCCCCC (stereo not given) [C-8 Ceramide-1-phosphate],percent Bodipy-positive cells,[1],10.1 ± 1.4%
NC(CO)(CO)CO [Trometamol],percent Bodipy-positive cells,[3],11.7 ± 4.1%
same,percent Bodipy-positive cells,[2],25.1 ± 6.4%
CN1CCC(=C2c3ccccc3CC(=O)c3sccc32)CC1.O=C(O)/C=C/C(=O)O [Ketotifen fumarate],percent Bodipy-positive cells,[2],88.3 ± 4%
CC(=O)c1ccc2c(c1)N(CCCN(C)C)c1ccccc1S2.O=C(O)/C=C\C(=O)O [Acepromazine maleate],percent Bodipy-positive cells,[2],91.1 ± 1.2%
O=C(CCCCCCNC(=O)c1cnc(N(c2ccccc2)c2ccccc2)nc1)NO [Rocilinostat (ACY-1215)],percent Bodipy-positive cells,[3],33.9 ± 0.89%
same,percent Bodipy-positive cells,[2],80.6 ± 4%
O=C(CCCCCCNC(=O)c1cnc(N(c2ccccc2)c2ccccc2)nc1)NO [Rocilinostat],percent Bodipy-positive cells,[4],42.6 ± 1.2%
same,percent Bodipy-positive cells,[5],38.8 ± 4%
same,percent Bodipy-positive cells,[6],27.9 ± 3%
same,percent Bodipy-positive cells,[2],68.3 ± 9.8%
O=c1ncccn1[C@@H]1O[C@H](CO)[C@@H](O)[C@H]1O [Zebularine],percent Bodipy-positive cells,[3],33.9 ± 5%
same,percent Bodipy-positive cells,[2],28.6% and 11.1%
CN(C)CCN(Cc1cccs1)c1ccccn1 [Methapyrilene hydrochloride],percent Bodipy-positive cells,,48.4 ± 2.6%
same,percent Bodipy-positive cells,library stock concentration: 6.7 mM,29.9 ± 2.6%
same,percent Bodipy-positive cells,[2],70.3% and 56%
O=c1c(O)c(-c2cc(O)c(O)c(O)c2)oc2cc(O)cc(O)c12 [Myricetin],percent Bodipy-positive cells,,25 ± 14%
same,percent Bodipy-positive cells,[2],23.2 ± 4.1%
Cc1cc(Cn2cnc3c2CC(C(=O)O)N(C(=O)C(c2ccccc2)c2ccccc2)C3)ccc1N(C)C (stereo not given),percent Bodipy-positive cells,[3],25.8 ± 3.5%
same,percent Bodipy-positive cells,[2],24.5% and 6.54%
O=C(O)c1cc2ccccc2[nH]1 [Indole-2-carboxylic acid],percent Bodipy-positive cells,[2],28.4 ± 17%
O=c1c(O)cccc2cc(O)c(O)c(O)c12 [Purpurogallin],percent Bodipy-positive cells,[2],31.3 ± 5.1%
Cc1ccc(S(=O)(=O)NC(=O)NN2CC3CCCC3C2)cc1 (stereo not given) [Gliclazide],percent Bodipy-positive cells,,27.1 ± 8.3%
same,percent Bodipy-positive cells,[3],7.16 ± 1.5%
same,percent Bodipy-positive cells,library stock concentration: 6.2 mM,8.54 ± 0.36%
COc1ccc(-c2cc(=O)c3c(O)cc(O)cc3o2)cc1 [Acacetin],percent Bodipy-positive cells,,19.3 ± 4.9%
same,percent Bodipy-positive cells,[2],28.8 ± 8.6%
CC(=O)N[C@@H](CC(=O)N[C@@H](CCC(=O)O)C(=O)O)C(=O)O [Spaglumic acid],percent Bodipy-positive cells,,10.6 ± 2.3%
same,percent Bodipy-positive cells,[2],13.7 ± 5.8%
c1ccc(C(NCCNC(c2ccccc2)c2ccccc2)c2ccccc2)cc1 [AMN 082 dihydrochloride],percent Bodipy-positive cells,[2],43.2 ± 1.4%
c1ccc(C(NCCNC(c2ccccc2)c2ccccc2)c2ccccc2)cc1,percent Bodipy-positive cells,[2],77.2 ± 1.3%
CN1CCN(c2nc3cc(C(F)(F)F)ccc3n3cccc23)CC1.O=C(O)/C=C\C(=O)O,percent Bodipy-positive cells,[2],97.4 ± 1.5%
CCCC[C@@H](C=O)NC(=O)[C@H](CC(C)C)NC(=O)OCc1ccccc1 [Calpeptin],percent Bodipy-positive cells,[2],16 ± 3.9%
same,percent Bodipy-positive cells,library stock concentration: 13.8 mM,26.1 ± 6%
Cc1ccc(NC(=O)c2ccc(CN3CCN(C)CC3)cc2)cc1Nc1nc(-c2cccnc2)cs1 [Masitinib],percent Bodipy-positive cells,[4],16.5 ± 2.5%
same,percent Bodipy-positive cells,[5],26.2 ± 1.4%
same,percent Bodipy-positive cells,[6],23.4 ± 0.83%
"Cc1ccc(NC(=O)c2ccc(CN3CCN(C)CC3)cc2)cc1Nc1nc(-c2cccnc2)cs1 [Masitinib (AB1010, Masivet) (0.4 mM)]",percent Bodipy-positive cells,[5],54.6 ± 1.1%
"Cc1ccc(NC(=O)c2ccc(CN3CCN(C)CC3)cc2)cc1Nc1nc(-c2cccnc2)cs1 [Masitinib (AB1010, Masivet) (10 mM)]",percent Bodipy-positive cells,[2],100%
COc1nc(C)nc(Cl)c1NC1=NCCN1,percent Bodipy-positive cells,[2],13.7 ± 5.2%
COc1nc(C)nc(Cl)c1NC1=NCCN1 [Moxonidine],percent Bodipy-positive cells,,8.27 ± 1.3%
same,percent Bodipy-positive cells,[3],7.55 ± 2%
same,percent Bodipy-positive cells,[2],10.2 ± 3.4%
COc1nc(C)nc(Cl)c1NC1=NCCN1 [Moxonidine hydrochloride],percent Bodipy-positive cells,[2],25.9% and 6.28%
CCn1cc(C(=O)O)c(=O)c2cnc(N3CCNCC3)nc21 [Pipemidic acid],percent Bodipy-positive cells,,9.88 ± 0.17%
same,percent Bodipy-positive cells,[2],27.8 ± 9%
O=C(Nc1cc(C(F)(F)F)ccc1N1CCCCC1)c1ccncc1,percent Bodipy-positive cells,[3],36.4 ± 12%
same,percent Bodipy-positive cells,[2],34.3 ± 9.1%
COc1cc2nc(N3CCN(C(=O)c4ccco4)CC3)nc(N)c2cc1OC [Prazosin HCl],percent Bodipy-positive cells,library stock concentration: 5.2 mM,62.4 ± 6.9%
COc1cc2nc(N3CCN(C(=O)c4ccco4)CC3)nc(N)c2cc1OC [Prazosin],percent Bodipy-positive cells,[2],92.2 ± 7%
COc1cc2nc(N3CCN(C(=O)c4ccco4)CC3)nc(N)c2cc1OC [Prazosin hydrochloride],percent Bodipy-positive cells,,79 ± 5%
same,percent Bodipy-positive cells,library stock concentration: 4.8 mM,83.8 ± 11%
same,percent Bodipy-positive cells,[2],73% and 96.1%
NCCS(=O)(=O)O [Taurine],percent Bodipy-positive cells,[2],23.46 ± 0.098%
same,percent Bodipy-positive cells,library stock concentration: 16 mM,16.7 ± 3.3%
CC(C)OC(=O)CCC/C=C\C[C@@H]1[C@@H](/C=C/C(F)(F)COc2ccccc2)[C@H](O)C[C@@H]1O [Tafluprost],percent Bodipy-positive cells,[1],6.82 ± 3.1%
N#CC(C#N)=C(N)/C(C#N)=C/c1ccc(O)cc1 [Tyrphostin AG 112],percent Bodipy-positive cells,[2],17.8 ± 6%
N#CC(C#N)=C(N)/C(C#N)=C/c1ccc(O)cc1,percent Bodipy-positive cells,[3],8.59 ± 2.7%
CCCCCCCC/C=C\CCCCCCCC(=O)OC[C@@H](O)COP(=O)(O)O [1-Oleoyl Lysophosphatidic Acid (sodium salt)],percent Bodipy-positive cells,[1],7.74 ± 2.2%
CCCCCCCC/C=C\CCCCCCCC(=O)OC[C@@H](O)COP(=O)(O)O [1-Oleoyl Lysophosphatidic Acid],percent Bodipy-positive cells,[1],9.7 ± 3.2%
Cc1nc2c(c(=O)[nH]1)CSCC2,percent Bodipy-positive cells,[2],7.73 ± 1.8%
CCCCCCCC/C=C\CCCCCCCC(=O)N[C@@H](CO)Cc1ccc(O)cc1,percent Bodipy-positive cells,[1],26.5 ± 11%
same,percent Bodipy-positive cells,[2],14.2 ± 2.4%
Oc1c(I)cc(I)c2cccnc12 [Iodoquinol],percent Bodipy-positive cells,library stock concentration: 5 mM,3.76 ± 0.27%
same,percent Bodipy-positive cells,[2],11.4 ± 4.1%
CCO[C@@H]1OC(=O)C[C@@H]1NC(=O)[C@@H]1CCCN1C(=O)[C@@H](NC(=O)c1ccc(N)c(Cl)c1)C(C)(C)C,percent Bodipy-positive cells,[3],8.51 ± 4.5%
same,percent Bodipy-positive cells,[2],17.4 ± 13%
CCN(CC)CCNC(=O)c1cc(S(C)(=O)=O)ccc1OC [Tiapride hydrochloride],percent Bodipy-positive cells,,22 ± 1.7%
CCCCCC=CCC=CCCCCCCCC(=O)OC(CO)CO [2-Linoleoyl Glycerol],percent Bodipy-positive cells,[1],15.2 ± 2.9%
CCCCCC(C)N (stereo not given) [Tuaminoheptane sulfate],percent Bodipy-positive cells,library stock concentration: 9.4 mM,12.3 ± 1.4%
same,percent Bodipy-positive cells,[2],25.8 ± 0.59%
COc1ccc2cc(CCC(C)=O)ccc2c1,percent Bodipy-positive cells,[2],47.9 ± 5.3%
COc1ccc2cc(CCC(C)=O)ccc2c1 [Nabumetone],percent Bodipy-positive cells,,18.1 ± 3.7%
same,percent Bodipy-positive cells,[3],15.9 ± 1.5%
same,percent Bodipy-positive cells,library stock concentration: 8.8 mM,18.4% and 18.1%
same,percent Bodipy-positive cells,[2],46.9% and 40.7%
O=C(O)CCC(=O)OC[C@@H](NC(=O)C(Cl)Cl)[C@H](O)c1ccc([N+](=O)[O-])cc1 [Chloramphenicol hemisuccinate],percent Bodipy-positive cells,library stock concentration: 4.7 mM,2.06 ± 1.1%
same,percent Bodipy-positive cells,[2],8.05 ± 0.84%
Cc1cccc(/C=C/c2ccccc2)n1,percent Bodipy-positive cells,[2],20.4% and 7.16%
CCn1cc(C(=O)O)c(=O)c2ccc(C)nc21 [Nalidixic acid sodium],percent Bodipy-positive cells,[2],40 ± 22%
CCn1cc(C(=O)O)c(=O)c2ccc(C)nc21,percent Bodipy-positive cells,[2],30.3 ± 9.7%
CCn1cc(C(=O)O)c(=O)c2ccc(C)nc21 [Nalidixic acid],percent Bodipy-positive cells,[3],6.19 ± 2.4%
same,percent Bodipy-positive cells,library stock concentration: 8.6 mM,10.8 ± 2.8%
same,percent Bodipy-positive cells,[2],20.9% and 22.9%
COc1ccc(-c2oc3c(CC=C(C)C)c(O[C@@H]4O[C@H](CO)[C@@H](O)[C@H](O)[C@H]4O)cc(O)c3c(=O)c2O[C@@H]2O[C@@H](C)[C@H](O)[C@@H](O)[C@H]2O)cc1,percent Bodipy-positive cells,[2],6.12 ± 0.44%
COc1ccc(-c2oc3c(CC=C(C)C)c(O[C@@H]4O[C@H](CO)[C@@H](O)[C@H](O)[C@H]4O)cc(O)c3c(=O)c2O[C@@H]2O[C@@H](C)[C@H](O)[C@@H](O)[C@H]2O)cc1 [Icariin],percent Bodipy-positive cells,[3],19.1 ± 7.5%
same,percent Bodipy-positive cells,[2],15.7 ± 3.5%
